Measurements from paper PMC3097230.
Results are given in words; binding and its absence hold for the method and conditions named. In cells and extracts the contact can be indirect. Some binding calls cover weakened binding; strength is not graded here. Tags and fused reporters may be left off the sequences shown.

Target: T1, GFP-dynamin I (UniProt Q05193)
T1 sequence: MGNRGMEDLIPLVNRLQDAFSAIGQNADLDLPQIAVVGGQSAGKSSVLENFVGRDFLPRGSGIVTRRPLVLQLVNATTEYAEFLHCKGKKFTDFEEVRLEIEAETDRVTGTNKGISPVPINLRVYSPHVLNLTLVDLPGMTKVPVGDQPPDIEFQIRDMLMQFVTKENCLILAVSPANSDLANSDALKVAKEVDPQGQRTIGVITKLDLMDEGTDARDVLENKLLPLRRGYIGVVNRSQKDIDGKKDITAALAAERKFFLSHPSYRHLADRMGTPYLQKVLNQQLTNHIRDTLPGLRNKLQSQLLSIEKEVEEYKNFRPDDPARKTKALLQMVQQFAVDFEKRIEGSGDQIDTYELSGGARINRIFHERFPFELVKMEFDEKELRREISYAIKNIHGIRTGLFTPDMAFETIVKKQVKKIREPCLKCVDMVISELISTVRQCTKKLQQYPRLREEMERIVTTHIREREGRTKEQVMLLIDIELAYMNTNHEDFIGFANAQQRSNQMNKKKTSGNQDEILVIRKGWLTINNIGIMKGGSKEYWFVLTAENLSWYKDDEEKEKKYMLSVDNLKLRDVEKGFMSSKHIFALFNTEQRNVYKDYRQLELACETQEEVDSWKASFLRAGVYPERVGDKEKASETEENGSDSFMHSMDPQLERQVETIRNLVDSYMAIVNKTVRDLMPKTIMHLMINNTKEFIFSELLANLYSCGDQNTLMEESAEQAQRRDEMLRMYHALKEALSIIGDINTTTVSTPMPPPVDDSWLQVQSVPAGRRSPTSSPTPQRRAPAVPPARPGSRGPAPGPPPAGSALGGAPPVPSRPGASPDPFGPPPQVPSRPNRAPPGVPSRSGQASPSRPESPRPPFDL
Assay: co-IP; Cos7 cells co-transfected with GFP-dynamin I and wild-type or mutant Myc-p130Cas, 24 h; lysis in modified RIPA buffer (50 mM Tris-HCl pH 7.4, 150 mM NaCl, 1% NP-40, 0.25% sodium deoxycholate); immunoprecipitation with anti-GFP, immunoblot with anti-Myc

B1: Myc-tagged p130Cas, wild type (protein, UniProt Q63767 1-968)
chain: MKYLVSVGAGPARRAGGLEDVSWGPRVSRRPQSYRAARHVNESLPRSAFRVPAAHGASVTPSAALGSGLPETQPEAVCRGTEKPRFAEGCKPAASRDKNVLAKALYDNVAESPDELSFRKGDIMTVLERDTQGLDGWWLCSLHGRQGIVPGNRLKILVGMYDKKPAAPGPGPPATPPQPQPSLPQGVHTPVPPASQYSPMLPTAYQPQPDNVYLVPTPSKTQQGLYQAPGPNPQFQSPPAKQTSTFSKQTPHHSFPSPATDLYQVPPGPGSPAQDIYQVPPSAGTGHDIYQVPPSLDTRSWEGTKPPAKVVVPTRVGQGYVYEASQAEQDEYDTPRHLLAPGSQDIYDVPPVRGLLPNQYGQEVYDTPPMAVKGPNGRDPLLDVYDVPPSVEKGLPPSNHHSVYDVPPSVSKDVPDGPLLREETYDVPPAFAKPKPFDPTRHPLILAAPPPDSPPAEDVYDVPPPAPDLYDVPPGLRRPGPGTLYDVPRERVLPPEVADGSVIDDGVYAVPPPAEREAPTDGKRLSASSTGSTRSSQSASSLEVVVPGREPLELEVAVETLARLQQGVSTTVAHLLDLVGSASGPGGWRSTSEPQEPPVQDLKAAVAAVHGAVHELLEFARSAVSSATHTSDRTLHAKLSRQLQKMEDVYQTLVVHGQVLDSGRGGPGFTLDDLDRLVACSRAVPEDAKQLASFLHGNASLLFRRTKAPGPGPEGSSSLHLNPTDKASSIQSRPLPSPPKFTSQDSPDGQYENSEGGWMEDYDYVHLQGKEEFEKTQKELLEKGNIVRQGKGQLELQQLKQFERLEQEVSRPIDHDLANWTPAQPLVPGRTGGLGPSDRQLLLFYLEQCEANLTTLTDAVDAFFTAVATNQPPKIFVAHSKFVILSAHKLVFIGDTLSRQAKAADVRSKVTHYSNLLCDLLRGIVATTKAAALQYPSPSAAQDMVDRVKELGHSTQQFRRVLGQLAAA
binding: binds
